# Some of these results come from one statement about several compounds together.
# Sequences of proteins named here, by UniProt entry; tags and fusion partners are left off. Residues count along the entry.
# UniProt P30561, 10-848 A375V: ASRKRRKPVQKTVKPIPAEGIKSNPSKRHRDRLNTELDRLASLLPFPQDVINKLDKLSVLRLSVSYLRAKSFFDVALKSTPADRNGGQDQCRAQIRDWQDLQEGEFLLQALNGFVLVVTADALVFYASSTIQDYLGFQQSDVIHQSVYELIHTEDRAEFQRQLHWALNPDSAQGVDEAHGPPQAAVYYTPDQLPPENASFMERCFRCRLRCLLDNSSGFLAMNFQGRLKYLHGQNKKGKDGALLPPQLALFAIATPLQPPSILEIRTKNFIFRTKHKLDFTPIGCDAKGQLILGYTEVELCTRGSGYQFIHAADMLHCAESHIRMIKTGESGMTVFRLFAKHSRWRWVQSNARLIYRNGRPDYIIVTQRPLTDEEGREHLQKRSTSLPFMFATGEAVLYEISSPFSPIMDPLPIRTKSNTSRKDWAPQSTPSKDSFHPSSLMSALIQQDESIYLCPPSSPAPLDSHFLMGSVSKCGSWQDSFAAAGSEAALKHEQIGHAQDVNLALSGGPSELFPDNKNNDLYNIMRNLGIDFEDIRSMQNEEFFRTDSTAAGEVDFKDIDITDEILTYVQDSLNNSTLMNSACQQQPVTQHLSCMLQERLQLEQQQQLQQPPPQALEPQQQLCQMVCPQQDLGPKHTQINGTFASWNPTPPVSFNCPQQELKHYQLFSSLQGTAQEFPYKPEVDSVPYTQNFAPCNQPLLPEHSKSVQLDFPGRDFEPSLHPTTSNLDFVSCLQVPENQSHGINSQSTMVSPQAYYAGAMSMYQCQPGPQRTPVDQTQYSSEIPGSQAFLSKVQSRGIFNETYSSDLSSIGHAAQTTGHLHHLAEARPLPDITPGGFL
# Target: murine AHR^d low affinity receptor (Mus musculus, UniProt P30561, A375V)
# Experiment: EROD activity in AHR^d-15 cells (rat hepatoma BP8 expressing murine AHR^d)
# Conditions: 1 μM compound (TCDD 2 nM), 36 hours
compound,measurement,value
"Clc1cc2c(cc1Cl)Oc1cc(Cl)c(Cl)cc1O2 [TCDD, 2,3,7,8-tetrachlorodibenzo-p-dioxin]",induction of AHR^d-mediated EROD activity,greater than 5 fold
